The comparison behind a weaker result is the experiment's own reference, which may not be listed here. The exact form of at least one protein or probe is not confirmed. For some of these results: Protein sequences can lack the tags named with them. For some of these results: At least one verdict was read from the data and is not stated in words by the source.

By UniProt entry, the sequences of proteins in these tests, tags left out. Residues count along the entry.
UniProt P02769, 25-607: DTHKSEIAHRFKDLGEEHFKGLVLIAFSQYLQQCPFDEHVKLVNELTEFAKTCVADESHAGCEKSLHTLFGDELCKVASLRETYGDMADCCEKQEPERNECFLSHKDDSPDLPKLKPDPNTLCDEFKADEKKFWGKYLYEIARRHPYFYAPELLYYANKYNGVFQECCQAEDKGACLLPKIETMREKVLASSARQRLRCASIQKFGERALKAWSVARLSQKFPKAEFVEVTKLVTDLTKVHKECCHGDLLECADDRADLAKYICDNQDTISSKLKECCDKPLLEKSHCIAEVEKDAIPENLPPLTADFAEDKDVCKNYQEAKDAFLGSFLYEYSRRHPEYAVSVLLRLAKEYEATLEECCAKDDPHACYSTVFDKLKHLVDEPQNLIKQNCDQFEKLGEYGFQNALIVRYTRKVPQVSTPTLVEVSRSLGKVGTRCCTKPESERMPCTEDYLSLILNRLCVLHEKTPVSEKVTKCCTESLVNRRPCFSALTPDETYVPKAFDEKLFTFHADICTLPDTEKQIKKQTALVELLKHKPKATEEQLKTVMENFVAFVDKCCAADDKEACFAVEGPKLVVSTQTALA
UniProt P02771, 19-609: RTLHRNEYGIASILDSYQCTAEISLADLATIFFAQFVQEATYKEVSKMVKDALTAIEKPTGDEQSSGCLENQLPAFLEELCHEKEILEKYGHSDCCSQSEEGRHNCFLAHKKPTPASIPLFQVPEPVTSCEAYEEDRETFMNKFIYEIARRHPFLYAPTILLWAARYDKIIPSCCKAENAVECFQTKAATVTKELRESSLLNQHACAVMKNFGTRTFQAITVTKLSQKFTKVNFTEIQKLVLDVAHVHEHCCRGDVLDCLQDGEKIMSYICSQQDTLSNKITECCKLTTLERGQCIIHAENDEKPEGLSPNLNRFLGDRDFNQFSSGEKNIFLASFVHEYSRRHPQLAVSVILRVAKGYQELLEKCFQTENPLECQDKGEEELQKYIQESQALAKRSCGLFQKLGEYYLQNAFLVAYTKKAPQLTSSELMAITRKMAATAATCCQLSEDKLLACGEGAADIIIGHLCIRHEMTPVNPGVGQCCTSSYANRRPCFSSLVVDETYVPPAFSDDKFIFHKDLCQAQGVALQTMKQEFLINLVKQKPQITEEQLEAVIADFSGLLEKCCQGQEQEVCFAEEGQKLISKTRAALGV
UniProt P01033, 24-207: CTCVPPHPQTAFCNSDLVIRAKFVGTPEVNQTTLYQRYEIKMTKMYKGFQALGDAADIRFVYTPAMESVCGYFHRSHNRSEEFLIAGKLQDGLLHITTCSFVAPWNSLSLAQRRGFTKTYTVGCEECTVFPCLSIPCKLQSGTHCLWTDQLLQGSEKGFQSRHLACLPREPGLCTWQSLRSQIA

Data set [1] has as its target T1, CEA (carcinoembryonic antigen) (UniProt P06731).
T1 sequence (looked up, limits assumed): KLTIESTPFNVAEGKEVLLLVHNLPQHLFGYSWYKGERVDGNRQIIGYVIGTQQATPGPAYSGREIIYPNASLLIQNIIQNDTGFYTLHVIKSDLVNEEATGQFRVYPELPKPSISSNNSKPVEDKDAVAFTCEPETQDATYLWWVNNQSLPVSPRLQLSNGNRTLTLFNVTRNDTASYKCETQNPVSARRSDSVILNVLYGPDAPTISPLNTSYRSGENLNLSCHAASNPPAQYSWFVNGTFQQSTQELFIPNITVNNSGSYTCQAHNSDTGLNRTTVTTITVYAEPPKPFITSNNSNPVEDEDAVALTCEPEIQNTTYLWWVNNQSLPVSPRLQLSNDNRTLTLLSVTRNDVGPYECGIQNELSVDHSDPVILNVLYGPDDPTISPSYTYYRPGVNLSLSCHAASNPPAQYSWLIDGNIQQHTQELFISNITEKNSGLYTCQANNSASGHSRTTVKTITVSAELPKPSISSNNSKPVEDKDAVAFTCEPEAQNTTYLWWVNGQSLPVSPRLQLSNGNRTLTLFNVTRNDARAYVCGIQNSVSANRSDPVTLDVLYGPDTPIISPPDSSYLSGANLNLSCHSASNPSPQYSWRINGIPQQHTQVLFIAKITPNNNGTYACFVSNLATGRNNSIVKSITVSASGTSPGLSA
Briefly: nitrocellulose filter binding. Conditions: minimal binding; DPBS (138 mM NaCl, 2.67 mM KCl, 8.1 mM Na2HPO4, 1.47 mM KH2PO4, 1 mM CaCl2, 0.5 mM MgCl2); pH and temperature not stated; commercial protein; single-stranded DNA.

Data set [2] has as its target BSA (bovine serum albumin) (bovine) (UniProt P02769). Briefly: nitrocellulose filter binding. The conditions noted are these: minimal binding; DPBS (138 mM NaCl, 2.67 mM KCl, 8.1 mM Na2HPO4, 1.47 mM KH2PO4, 1 mM CaCl2, 0.5 mM MgCl2); pH and temperature not stated; commercial protein; single-stranded DNA.
In another data set the target is AFP (alpha-fetoprotein) (UniProt P02771). Description: nitrocellulose filter binding. Conditions: minimal binding; DPBS (138 mM NaCl, 2.67 mM KCl, 8.1 mM Na2HPO4, 1.47 mM KH2PO4, 1 mM CaCl2, 0.5 mM MgCl2); pH and temperature not stated; commercial protein; single-stranded DNA.
The target in data set [3] is TIMP-1 (tissue inhibitor of metalloproteinases 1) (human) (UniProt P01033). Description: chemiluminescent immunoassay. The conditions noted are these: DPBS (138 mM NaCl, 2.67 mM KCl, 8.1 mM Na2HPO4, 1.47 mM KH2PO4, 1 mM CaCl2, 0.5 mM MgCl2), pH and temperature not stated, commercial protein, protein details: His, single-stranded DNA.

Consider “CACGCATAGCGCCCCAACCCCAGTCGATGAAATTGCGTCGCGGGTGCCTATGCGTG [Apt-4]”, for which the binding result (in data set [1]; in data set [2]; in the data set with AFP (alpha-fetoprotein)) was “binds more weakly” in each case.
Turning to “GCATAGCGCCCCAACCCCAGTCGATGAAATTGCGTCGCGGGTGCCTATGC [Apt-4-1C]”, the binding result in data set [3] (signal not decreased) was “binds”.
“GCCCCAACCCCAGTCGATGAAATTGCGTCGCGGGT [Apt-4-4C]”: in data set [3] (decreased signal), the binding result is on record as “binds more weakly”.
For “GCGCCCCAACCCCAGTCGATGAAATTGCGTCGCGGGTGC [Apt-4-3C]”, the binding result in data set [3] (signal not decreased) is on record as “binds”.
The same measure, in the same setting: as for “TAGCGCCCCAACCCCAGTCGATGAAATTGCGTCGCGGGTGCCTA [Apt-4-2C]”, the entry is “binds”.

Source of the values: publication PMC11750923.
